Experimental data as given in the supplement of paper PMC10849652.
The other results are listed elsewhere or left out.

Sequences of proteins named here, by UniProt entry; tags and fusion partners are left off. A change or cut given only in a name is not applied to a line headed by its entry.
UniProt P53667: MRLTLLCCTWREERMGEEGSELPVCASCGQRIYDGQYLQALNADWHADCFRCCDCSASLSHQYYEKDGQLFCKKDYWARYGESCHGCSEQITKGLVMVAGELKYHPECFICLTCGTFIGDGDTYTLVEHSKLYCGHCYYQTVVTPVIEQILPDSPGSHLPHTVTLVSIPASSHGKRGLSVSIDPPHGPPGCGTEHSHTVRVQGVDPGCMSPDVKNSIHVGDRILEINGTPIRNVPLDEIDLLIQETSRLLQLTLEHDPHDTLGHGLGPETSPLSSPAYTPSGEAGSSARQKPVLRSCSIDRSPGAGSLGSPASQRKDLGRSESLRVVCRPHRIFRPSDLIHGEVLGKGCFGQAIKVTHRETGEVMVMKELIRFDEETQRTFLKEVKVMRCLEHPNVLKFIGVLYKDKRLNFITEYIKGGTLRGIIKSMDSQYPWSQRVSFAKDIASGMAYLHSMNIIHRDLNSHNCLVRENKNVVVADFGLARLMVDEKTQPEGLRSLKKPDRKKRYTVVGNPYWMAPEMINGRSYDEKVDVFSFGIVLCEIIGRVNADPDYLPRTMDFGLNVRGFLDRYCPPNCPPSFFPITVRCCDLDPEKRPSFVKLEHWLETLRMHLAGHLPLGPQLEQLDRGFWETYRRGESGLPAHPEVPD
UniProt Q14693: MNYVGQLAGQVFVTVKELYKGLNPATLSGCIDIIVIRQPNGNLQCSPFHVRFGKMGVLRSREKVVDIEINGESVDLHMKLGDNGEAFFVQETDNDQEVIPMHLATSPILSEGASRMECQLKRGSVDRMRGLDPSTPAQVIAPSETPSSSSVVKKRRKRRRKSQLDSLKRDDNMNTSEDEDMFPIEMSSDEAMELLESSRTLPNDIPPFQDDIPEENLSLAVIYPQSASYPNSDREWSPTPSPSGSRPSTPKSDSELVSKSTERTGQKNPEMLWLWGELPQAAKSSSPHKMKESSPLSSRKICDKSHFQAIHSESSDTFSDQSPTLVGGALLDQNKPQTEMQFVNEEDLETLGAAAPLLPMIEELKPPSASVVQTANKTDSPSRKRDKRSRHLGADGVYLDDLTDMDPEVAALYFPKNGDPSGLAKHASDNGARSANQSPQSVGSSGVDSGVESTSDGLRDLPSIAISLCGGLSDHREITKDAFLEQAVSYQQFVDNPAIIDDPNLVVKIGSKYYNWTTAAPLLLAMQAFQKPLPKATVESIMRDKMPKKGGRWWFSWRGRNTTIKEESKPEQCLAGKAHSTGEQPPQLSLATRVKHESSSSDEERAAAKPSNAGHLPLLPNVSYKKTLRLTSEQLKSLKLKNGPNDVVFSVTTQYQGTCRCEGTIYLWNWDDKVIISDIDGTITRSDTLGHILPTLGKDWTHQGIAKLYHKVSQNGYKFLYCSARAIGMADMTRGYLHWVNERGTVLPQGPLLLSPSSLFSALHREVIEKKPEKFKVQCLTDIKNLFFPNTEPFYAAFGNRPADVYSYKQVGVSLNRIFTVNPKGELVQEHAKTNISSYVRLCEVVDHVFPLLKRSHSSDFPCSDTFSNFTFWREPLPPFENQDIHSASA
UniProt P20700: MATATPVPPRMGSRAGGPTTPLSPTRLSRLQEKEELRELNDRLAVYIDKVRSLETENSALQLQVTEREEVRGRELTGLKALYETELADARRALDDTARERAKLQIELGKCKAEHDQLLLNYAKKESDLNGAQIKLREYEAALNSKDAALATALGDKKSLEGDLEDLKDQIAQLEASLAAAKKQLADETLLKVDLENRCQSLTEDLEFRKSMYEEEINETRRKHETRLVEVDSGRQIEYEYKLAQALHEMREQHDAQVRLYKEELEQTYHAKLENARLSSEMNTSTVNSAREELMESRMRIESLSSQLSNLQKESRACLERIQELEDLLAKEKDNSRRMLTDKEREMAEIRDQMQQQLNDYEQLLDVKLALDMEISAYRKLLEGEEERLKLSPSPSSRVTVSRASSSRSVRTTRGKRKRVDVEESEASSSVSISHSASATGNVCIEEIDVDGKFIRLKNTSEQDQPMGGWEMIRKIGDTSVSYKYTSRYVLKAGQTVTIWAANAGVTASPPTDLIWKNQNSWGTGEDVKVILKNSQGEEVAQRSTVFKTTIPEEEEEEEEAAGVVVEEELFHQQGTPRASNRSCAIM
UniProt Q6P1M3: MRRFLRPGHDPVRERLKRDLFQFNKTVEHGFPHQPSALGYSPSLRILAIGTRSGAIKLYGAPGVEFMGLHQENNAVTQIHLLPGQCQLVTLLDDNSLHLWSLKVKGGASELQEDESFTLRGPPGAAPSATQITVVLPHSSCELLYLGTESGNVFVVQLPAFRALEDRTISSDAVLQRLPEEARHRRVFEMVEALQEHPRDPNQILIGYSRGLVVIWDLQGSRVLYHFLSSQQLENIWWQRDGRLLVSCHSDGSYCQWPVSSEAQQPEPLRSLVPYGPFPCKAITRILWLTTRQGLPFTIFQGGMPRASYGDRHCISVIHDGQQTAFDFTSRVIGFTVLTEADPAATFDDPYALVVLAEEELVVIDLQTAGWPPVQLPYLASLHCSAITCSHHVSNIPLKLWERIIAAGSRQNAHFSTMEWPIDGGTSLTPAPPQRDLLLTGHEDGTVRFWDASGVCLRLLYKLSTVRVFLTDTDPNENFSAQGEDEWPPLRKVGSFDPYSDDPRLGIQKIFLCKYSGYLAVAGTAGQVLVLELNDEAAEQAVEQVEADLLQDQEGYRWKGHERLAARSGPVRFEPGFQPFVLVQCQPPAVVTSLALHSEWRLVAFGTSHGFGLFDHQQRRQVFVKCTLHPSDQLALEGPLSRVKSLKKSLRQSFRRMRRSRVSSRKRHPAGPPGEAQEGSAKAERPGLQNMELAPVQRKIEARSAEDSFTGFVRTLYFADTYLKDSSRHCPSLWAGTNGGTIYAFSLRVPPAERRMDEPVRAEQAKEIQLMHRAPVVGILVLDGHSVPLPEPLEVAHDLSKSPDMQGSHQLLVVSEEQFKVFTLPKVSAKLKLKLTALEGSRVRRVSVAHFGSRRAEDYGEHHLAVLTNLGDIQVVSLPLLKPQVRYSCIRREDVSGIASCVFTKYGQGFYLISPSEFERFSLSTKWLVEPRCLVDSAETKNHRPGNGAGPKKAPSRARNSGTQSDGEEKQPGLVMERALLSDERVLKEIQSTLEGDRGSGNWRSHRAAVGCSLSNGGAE
UniProt P48449: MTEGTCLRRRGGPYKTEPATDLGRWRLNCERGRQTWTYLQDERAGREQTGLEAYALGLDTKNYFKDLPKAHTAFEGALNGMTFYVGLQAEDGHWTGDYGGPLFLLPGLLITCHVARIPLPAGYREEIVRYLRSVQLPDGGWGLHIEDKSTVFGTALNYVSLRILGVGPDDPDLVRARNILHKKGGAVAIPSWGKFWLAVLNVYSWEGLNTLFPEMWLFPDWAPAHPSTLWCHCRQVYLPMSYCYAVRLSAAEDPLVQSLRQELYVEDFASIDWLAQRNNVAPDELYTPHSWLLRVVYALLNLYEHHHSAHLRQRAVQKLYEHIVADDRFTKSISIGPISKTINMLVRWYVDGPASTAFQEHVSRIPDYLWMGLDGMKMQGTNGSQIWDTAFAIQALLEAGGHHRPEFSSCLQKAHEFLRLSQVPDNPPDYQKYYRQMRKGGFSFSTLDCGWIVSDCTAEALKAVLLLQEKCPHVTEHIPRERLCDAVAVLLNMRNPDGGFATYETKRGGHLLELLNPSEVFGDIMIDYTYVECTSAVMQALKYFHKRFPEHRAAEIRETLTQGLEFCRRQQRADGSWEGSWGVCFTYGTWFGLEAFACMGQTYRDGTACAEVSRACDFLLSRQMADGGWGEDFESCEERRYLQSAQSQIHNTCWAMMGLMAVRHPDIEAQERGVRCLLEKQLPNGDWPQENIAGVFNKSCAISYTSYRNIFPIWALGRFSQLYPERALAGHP
UniProt P02545: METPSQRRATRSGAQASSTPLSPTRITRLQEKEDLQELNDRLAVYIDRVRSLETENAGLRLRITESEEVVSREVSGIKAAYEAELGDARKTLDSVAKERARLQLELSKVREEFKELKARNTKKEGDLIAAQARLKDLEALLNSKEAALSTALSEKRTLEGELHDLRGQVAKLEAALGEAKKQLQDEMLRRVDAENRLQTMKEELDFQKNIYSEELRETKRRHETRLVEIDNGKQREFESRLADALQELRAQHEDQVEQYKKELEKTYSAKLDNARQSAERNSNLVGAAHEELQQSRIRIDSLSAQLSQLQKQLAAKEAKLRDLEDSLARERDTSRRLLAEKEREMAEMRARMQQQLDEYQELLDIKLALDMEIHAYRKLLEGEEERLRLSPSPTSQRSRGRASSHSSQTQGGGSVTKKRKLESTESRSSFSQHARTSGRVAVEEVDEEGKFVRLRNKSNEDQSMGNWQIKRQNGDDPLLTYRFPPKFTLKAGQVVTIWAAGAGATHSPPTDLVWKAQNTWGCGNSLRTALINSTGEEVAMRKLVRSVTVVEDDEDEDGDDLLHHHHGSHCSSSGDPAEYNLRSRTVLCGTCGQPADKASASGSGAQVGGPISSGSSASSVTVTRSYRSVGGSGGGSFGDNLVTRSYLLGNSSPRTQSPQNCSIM
UniProt Q12907: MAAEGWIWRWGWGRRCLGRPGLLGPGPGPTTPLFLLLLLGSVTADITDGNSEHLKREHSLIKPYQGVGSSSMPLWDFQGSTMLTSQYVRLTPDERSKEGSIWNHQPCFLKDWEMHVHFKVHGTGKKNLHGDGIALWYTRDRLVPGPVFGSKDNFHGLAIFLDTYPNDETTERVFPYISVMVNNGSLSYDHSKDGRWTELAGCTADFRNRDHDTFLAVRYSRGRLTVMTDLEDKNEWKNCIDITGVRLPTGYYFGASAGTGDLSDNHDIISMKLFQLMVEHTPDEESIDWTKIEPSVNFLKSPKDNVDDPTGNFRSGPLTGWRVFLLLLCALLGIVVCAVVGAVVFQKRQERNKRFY
UniProt Q9P244: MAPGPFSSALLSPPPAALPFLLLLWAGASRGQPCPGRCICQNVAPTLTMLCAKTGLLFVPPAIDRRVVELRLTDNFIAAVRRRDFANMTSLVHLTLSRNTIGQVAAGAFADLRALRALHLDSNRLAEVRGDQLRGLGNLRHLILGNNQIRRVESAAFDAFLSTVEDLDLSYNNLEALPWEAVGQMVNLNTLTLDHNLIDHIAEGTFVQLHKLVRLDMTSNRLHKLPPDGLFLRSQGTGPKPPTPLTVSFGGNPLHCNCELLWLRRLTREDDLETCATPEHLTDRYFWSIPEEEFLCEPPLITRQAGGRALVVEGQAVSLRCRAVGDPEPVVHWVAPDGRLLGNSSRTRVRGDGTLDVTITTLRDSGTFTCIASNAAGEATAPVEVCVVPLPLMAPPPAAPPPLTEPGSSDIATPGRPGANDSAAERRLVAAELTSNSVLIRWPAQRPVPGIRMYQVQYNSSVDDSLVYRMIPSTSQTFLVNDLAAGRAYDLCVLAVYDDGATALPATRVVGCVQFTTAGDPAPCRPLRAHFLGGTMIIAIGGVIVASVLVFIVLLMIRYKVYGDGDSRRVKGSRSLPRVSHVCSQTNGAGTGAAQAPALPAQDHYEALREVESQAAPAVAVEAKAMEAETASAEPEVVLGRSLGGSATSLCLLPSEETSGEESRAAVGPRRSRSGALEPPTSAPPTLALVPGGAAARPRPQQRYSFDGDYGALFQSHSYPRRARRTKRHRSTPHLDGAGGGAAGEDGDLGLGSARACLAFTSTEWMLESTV
UniProt Q92539: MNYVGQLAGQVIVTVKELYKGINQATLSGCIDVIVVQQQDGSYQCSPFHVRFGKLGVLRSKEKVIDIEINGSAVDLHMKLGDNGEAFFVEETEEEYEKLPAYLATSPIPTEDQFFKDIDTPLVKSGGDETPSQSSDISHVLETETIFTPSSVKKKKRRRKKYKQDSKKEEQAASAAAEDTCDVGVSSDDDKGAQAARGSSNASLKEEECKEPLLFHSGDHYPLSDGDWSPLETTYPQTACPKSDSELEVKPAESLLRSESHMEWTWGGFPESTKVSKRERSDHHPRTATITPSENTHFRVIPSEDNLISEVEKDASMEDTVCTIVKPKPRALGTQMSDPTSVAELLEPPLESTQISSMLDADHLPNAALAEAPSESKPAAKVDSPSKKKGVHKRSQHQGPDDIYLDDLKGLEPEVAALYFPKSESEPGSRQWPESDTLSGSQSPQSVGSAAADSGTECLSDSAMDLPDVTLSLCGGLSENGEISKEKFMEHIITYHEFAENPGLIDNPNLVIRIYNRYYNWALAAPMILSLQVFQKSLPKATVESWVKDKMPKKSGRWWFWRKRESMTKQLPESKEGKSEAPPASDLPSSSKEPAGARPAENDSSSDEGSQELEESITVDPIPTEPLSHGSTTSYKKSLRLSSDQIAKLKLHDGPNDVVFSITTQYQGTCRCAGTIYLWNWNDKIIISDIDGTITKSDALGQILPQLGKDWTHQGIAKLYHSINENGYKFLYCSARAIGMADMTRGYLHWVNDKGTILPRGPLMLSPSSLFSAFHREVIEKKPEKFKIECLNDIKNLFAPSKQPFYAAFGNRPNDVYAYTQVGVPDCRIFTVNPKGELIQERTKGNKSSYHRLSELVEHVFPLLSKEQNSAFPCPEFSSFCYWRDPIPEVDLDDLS

What was measured:
Assay in all cases: log2 fold change, soluble protein after heating vs DMSO (PISA); higher = thermal stabilisation; K562 lysate, 10 uM; active = over 0.2 and 3.5 SD of the protein, either way, in both replicates (recomputed)
nilotinib = compound: Cc1cn(-c2cc(NC(=O)c3ccc(C)c(Nc4nccc(-c5cccnc5)n4)c3)cc(C(F)(F)F)c2)cn1 [nilotinib]
Procedure, shortened: (§1)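 The values are log-two fold changes in thermal stability compared with solvent controls and come from duplicates. They were obtained by TMTpro 16plex LC-MS/MS, with channel sums equalised, on the supernatant after 21,000xg for 90 min. That supernatant came from crude K562 extract at 1 mg/mL protein treated with 10 μM compound for 30 min, heated for 3 min across 48°C-58°C, pooled and brought to 0.5% NP-40 at 4°C.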

[1] = compound: Cc1nc(Nc2n[nH]c3c2CN(C(=O)N[C@H](CN(C)C)c2ccccc2)C3(C)C)c2sccc2n1
Procedure, shortened: as §1

dasatinib = compound: Cc1nc(Nc2ncc(C(=O)Nc3c(C)cccc3Cl)s2)cc(N2CCN(CCO)CC2)n1 [dasatinib]
Procedure, shortened: as §1

[2] = compound: Cc1ncc(-c2ccnc(Nc3ccc(S(C)(=O)=O)cc3)n2)n1C(C)C
Procedure, shortened: as §1

[3] = compound: Cn1cc(-c2ccc3c(c2)CCN3C(=O)Cc2cccc(C(F)(F)F)c2)c2c(N)ncnc21
Procedure, shortened: as §1

quisinostat = compound: Cn1cc(CNCC2CCN(c3ncc(C(=O)NO)cn3)CC2)c2ccccc21 [quisinostat]
Procedure, shortened: as §1

tipifarnib = compound: Cn1cncc1[C@@](N)(c1ccc(Cl)cc1)c1ccc2c(c1)c(-c1cccc(Cl)c1)cc(=O)n2C [tipifarnib]
Procedure, shortened: as §1

[4] = compound: NC(=O)Nc1cc(-c2cccc(F)c2)sc1C(=O)N[C@H]1CCCNC1
Procedure, shortened: as §1

[5] = compound: NC(=O)c1cnc(N[C@@H]2CCCC[C@@H]2N)nc1Nc1cccc(-n2nccn2)c1
Procedure, shortened: as §1

[6] = compound: NC1(c2ccc(-c3nc4ccn5c(=O)[nH]nc5c4cc3-c3ccccc3)cc2)CCC1
Procedure, shortened: as §1

Measured: log2 fold change

LIMK1 (UniProt P53667)
inactive: nilotinib -0.315 | [1] 0.008 | dasatinib 0.4 | [2] 0.031 | [3] 0.146 | quisinostat -0.145 | tipifarnib 0.102 | [4] 0.126 | [5] 0.118

LSM7 (UniProt Q9UK45)
inactive: nilotinib 0.008 | [1] -0.005 | dasatinib -0.009 | [2] -0.012 | [3] -0.034 | quisinostat 0.011 | tipifarnib -0.013 | [4] -0.016 | [5] 0.006 | [6] -0.014

LRRC8B (UniProt Q6P9F7)
inactive: nilotinib 0.161 | [1] -0.044 | dasatinib -0.081 | [2] 0.006 | [3] -0.002 | quisinostat 0.082 | tipifarnib -0.069 | [4] -0.073 | [5] 0.215 | [6] -0.048

LENG8 (UniProt Q96PV6)
inactive: nilotinib -0.057 | [1] 0.02 | dasatinib 0.193 | [2] 0.064 | [3] -0.033 | quisinostat -0.051 | tipifarnib -0.022 | [4] 0.058 | [5] -0.027 | [6] -0.159

LRPPRC (UniProt P42704)
inactive: nilotinib -0.019 | [1] -0.004 | dasatinib -0.062 | [2] 0.012 | [3] 0.056 | quisinostat -0.003 | tipifarnib -0.027 | [4] 0.052 | [5] 0.047 | [6] 0.004

LLPH (UniProt Q9BRT6)
inactive: nilotinib 0.014 | [1] 0.025 | dasatinib -0.038 | [2] -0.006 | [3] 0.104 | quisinostat 0.146 | tipifarnib 0.032 | [4] 0.02 | [5] 0 | [6] -0.057

LPIN1 isoform 7 (UniProt Q14693)
inactive: nilotinib -0.032 | [1] 0.026 | dasatinib -0.107 | [2] 0.182 | [3] 0.028 | quisinostat -0.032 | tipifarnib -0.104 | [4] 0.035 | [5] -0.04 | [6] 0.003

LDHA isoform 3 (UniProt P00338)
inactive: nilotinib -0.021 | [1] -0.004 | dasatinib 0.033 | [2] -0.044 | [3] -0.024 | quisinostat -0.015 | tipifarnib 0.022 | [4] -0.035 | [5] -0.024 | [6] 0.008

LGALS3 (UniProt P17931)
inactive: nilotinib -0.007 | [1] 0.038 | dasatinib 0.494 | [2] 0.026 | [3] -0.355 | quisinostat -0.053 | tipifarnib -0.005 | [4] -0.106 | [5] 0.047 | [6] 0

LLGL1 (UniProt Q15334)
inactive: nilotinib 0 | [1] 0.149 | dasatinib -0.011 | [2] 0.052 | [3] 0.016 | quisinostat -0.046 | tipifarnib -0.077 | [4] 0.159 | [5] 0.053 | [6] 0.075

LSM12 (UniProt Q3MHD2)
inactive: nilotinib -0.014 | [1] 0.002 | dasatinib -0.037 | [2] 0.03 | [3] -0.004 | quisinostat -0.003 | tipifarnib -0.043 | [4] -0.013 | [5] 0.022 | [6] -0.017

LRCH3 (UniProt Q96II8)
inactive: nilotinib -0.003 | [1] -0.029 | dasatinib -0.095 | [2] 0.064 | [3] 0.038 | quisinostat -0.16 | tipifarnib -0.029 | [4] -0.005 | [5] 0.011 | [6] -0.025

LMBRD2 (UniProt Q68DH5)
inactive: nilotinib -0.08 | [1] -0.02 | dasatinib 0.005 | [2] 0.024 | [3] 0.044 | quisinostat -0.119 | tipifarnib -0.047 | [4] 0.015 | [5] 0 | [6] -0.027

LMNB1 (UniProt P20700)
inactive: nilotinib 0.039 | [1] 0.017 | dasatinib -0.025 | [2] 0.003 | [3] 0.028 | quisinostat -0.03 | tipifarnib -0.03 | [4] -0.027 | [5] -0.004 | [6] 0.026

LONP1 (UniProt P36776)
inactive: nilotinib 0.025 | [1] 0 | dasatinib -0.013 | [2] 0 | [3] -0.005 | quisinostat 0.06 | tipifarnib 0.024 | [4] -0.034 | [5] 0.187 | [6] -0.018

LLGL2 (UniProt Q6P1M3)
inactive: nilotinib 0.071 | [1] 0.156 | dasatinib 0.126 | [2] -0.069 | [3] -0.105 | quisinostat -0.102 | tipifarnib 0.125 | [4] 0.162 | [5] 0.07 | [6] 0.041

LIN28B (UniProt Q6ZN17)
inactive: nilotinib -0.031 | [1] 0.011 | dasatinib 0.021 | [2] 0 | [3] 0.015 | quisinostat 0.012 | tipifarnib 0.017 | [4] 0.023 | [5] -0.006 | [6] -0.006

LSS (UniProt P48449)
inactive: nilotinib 0.042 | [1] 0.001 | dasatinib 0.016 | [2] -0.025 | [3] 0.047 | quisinostat -0.022 | tipifarnib -0.065 | [4] 0.003 | [5] 0.083 | [6] 0.092

LSG1 (UniProt Q9H089)
inactive: nilotinib 0.003 | [1] 0.015 | dasatinib 0.102 | [2] 0.026 | [3] 0.137 | quisinostat -0.091 | tipifarnib -0.004 | [4] 0.115 | [5] -0.014 | [6] 0.032

LNPK (UniProt Q9C0E8)
inactive: nilotinib -0.002 | [1] 0.063 | dasatinib 0.006 | [2] -0.057 | [3] 0.035 | quisinostat -0.033 | tipifarnib -0.053 | [4] 0.012 | [5] 0.009 | [6] 0.035

LMO2 isoform 3 (UniProt P25791)
inactive: nilotinib 0.067 | [1] -0.051 | dasatinib -0.29 | [2] 0.251 | [3] -0.154 | quisinostat -0.024 | tipifarnib 0 | [4] 0.028 | [5] -0.021 | [6] 0.052

LPCAT2 (UniProt Q7L5N7)
inactive: nilotinib 0.108 | [1] 0.039 | dasatinib 0.181 | [2] -0.225 | [3] -0.103 | quisinostat -0.252 | tipifarnib -0.079 | [4] 0.231

LMAN1 (UniProt P49257)
inactive: nilotinib -0.024 | [1] 0.001 | dasatinib 0.041 | [2] -0.002 | [3] 0.041 | quisinostat -0.043 | tipifarnib -0.072 | [4] 0.004 | [5] -0.003 | [6] -0.013

LMNA (UniProt P02545)
inactive: nilotinib 0.015 | [1] -0.08 | dasatinib 0.071 | [2] 0.006 | [3] -0.032 | quisinostat 0.068 | tipifarnib -0.029 | [4] -0.023 | [5] 0.016 | [6] 0.021

LRRC20 (UniProt Q8TCA0)
inactive: nilotinib 0.039 | [1] -0.034 | dasatinib 0.015 | [2] 0.008 | [3] 0.008 | quisinostat -0.017 | tipifarnib 0.079 | [4] -0.056 | [5] -0.013 | [6] 0.014

LMAN2 (UniProt Q12907)
inactive: nilotinib 0.006 | [1] -0.017 | dasatinib 0.02 | [2] 0.002 | [3] -0.007 | quisinostat -0.004 | tipifarnib -0.048 | [4] -0.005 | [5] 0 | [6] 0.002

LRFN1 (UniProt Q9P244)
inactive: nilotinib -0.048 | [1] 0.139 | dasatinib 0.02 | [2] 0.01 | [3] 0.053 | quisinostat -0.064 | tipifarnib -0.063 | [4] 0.067 | [5] 0.021 | [6] -0.069

LETM1 (UniProt O95202)
inactive: nilotinib 0.038 | [1] -0.021 | dasatinib -0.008 | [2] 0.048 | [3] 0.007 | quisinostat 0.043 | tipifarnib 0.008 | [4] -0.012 | [5] -0.011 | [6] -0.024

LNPEP (UniProt Q9UIQ6)
inactive: nilotinib 0.029 | [1] 0.002 | dasatinib 0.033 | [2] 0.03 | [3] -0.014 | quisinostat -0.046 | tipifarnib 0.007 | [4] -0.009 | [5] -0.009 | [6] -0.019

LPIN2 (UniProt Q92539)
inactive: nilotinib 0.01 | [1] -0.062 | dasatinib -0.045 | [2] -0.051 | [3] 0 | quisinostat 0.003 | tipifarnib 0.022 | [4] -0.012 | [5] -0.033 | [6] -0.008
